The supplement of paper PMC10849652
The list shows a part of the results.

Amino acid sequences for entries named in this document (tags omitted). A change or cut given only in a name is not applied to a line headed by its entry.
UniProt P80188: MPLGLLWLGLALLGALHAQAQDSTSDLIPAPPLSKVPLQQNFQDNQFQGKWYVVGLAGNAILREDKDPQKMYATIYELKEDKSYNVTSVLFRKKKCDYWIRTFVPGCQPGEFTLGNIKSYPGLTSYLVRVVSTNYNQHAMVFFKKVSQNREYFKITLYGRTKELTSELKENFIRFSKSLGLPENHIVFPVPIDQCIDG
UniProt P18858, whole entry, looked up: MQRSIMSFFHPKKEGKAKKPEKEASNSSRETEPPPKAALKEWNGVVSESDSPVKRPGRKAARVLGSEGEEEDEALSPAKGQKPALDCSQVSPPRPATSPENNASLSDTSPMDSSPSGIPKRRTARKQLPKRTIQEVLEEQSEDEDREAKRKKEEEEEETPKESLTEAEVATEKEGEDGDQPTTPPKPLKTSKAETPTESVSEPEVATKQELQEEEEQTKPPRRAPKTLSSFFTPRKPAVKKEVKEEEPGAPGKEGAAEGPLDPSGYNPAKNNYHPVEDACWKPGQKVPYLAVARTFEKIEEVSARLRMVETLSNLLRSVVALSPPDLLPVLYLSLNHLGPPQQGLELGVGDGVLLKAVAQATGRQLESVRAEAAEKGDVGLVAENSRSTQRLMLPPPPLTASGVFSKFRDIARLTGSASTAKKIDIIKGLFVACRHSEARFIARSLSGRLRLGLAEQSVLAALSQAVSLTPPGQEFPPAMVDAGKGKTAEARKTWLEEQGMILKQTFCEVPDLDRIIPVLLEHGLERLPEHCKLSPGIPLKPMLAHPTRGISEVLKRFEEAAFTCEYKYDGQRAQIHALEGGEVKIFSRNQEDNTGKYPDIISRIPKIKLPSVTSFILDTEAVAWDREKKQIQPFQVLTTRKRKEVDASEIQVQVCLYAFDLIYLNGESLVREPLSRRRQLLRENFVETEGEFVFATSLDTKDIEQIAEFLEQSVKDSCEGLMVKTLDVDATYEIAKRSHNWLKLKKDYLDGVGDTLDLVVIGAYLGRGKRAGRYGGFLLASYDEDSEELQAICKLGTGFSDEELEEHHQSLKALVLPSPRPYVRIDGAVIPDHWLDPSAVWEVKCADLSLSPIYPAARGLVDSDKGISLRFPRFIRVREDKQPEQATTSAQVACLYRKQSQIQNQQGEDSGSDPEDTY
UniProt Q9BU23: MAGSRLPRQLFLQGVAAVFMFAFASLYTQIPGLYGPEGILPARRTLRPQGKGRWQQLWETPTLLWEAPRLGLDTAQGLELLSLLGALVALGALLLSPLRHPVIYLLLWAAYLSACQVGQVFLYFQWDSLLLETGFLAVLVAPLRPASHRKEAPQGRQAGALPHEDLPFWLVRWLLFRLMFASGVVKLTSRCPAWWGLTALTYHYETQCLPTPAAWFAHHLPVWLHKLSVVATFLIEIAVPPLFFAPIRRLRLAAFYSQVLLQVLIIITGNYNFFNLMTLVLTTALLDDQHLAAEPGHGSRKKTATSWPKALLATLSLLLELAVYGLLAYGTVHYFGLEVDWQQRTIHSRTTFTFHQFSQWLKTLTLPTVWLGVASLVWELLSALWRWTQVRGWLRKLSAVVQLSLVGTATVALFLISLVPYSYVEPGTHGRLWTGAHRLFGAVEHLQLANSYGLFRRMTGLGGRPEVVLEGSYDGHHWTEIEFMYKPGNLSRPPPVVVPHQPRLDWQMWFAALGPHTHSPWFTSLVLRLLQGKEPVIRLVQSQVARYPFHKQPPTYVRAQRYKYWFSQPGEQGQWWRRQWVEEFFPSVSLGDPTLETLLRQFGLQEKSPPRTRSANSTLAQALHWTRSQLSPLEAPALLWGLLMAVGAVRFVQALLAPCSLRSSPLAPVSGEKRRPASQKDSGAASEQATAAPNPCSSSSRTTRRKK
UniProt Q9Y2U8: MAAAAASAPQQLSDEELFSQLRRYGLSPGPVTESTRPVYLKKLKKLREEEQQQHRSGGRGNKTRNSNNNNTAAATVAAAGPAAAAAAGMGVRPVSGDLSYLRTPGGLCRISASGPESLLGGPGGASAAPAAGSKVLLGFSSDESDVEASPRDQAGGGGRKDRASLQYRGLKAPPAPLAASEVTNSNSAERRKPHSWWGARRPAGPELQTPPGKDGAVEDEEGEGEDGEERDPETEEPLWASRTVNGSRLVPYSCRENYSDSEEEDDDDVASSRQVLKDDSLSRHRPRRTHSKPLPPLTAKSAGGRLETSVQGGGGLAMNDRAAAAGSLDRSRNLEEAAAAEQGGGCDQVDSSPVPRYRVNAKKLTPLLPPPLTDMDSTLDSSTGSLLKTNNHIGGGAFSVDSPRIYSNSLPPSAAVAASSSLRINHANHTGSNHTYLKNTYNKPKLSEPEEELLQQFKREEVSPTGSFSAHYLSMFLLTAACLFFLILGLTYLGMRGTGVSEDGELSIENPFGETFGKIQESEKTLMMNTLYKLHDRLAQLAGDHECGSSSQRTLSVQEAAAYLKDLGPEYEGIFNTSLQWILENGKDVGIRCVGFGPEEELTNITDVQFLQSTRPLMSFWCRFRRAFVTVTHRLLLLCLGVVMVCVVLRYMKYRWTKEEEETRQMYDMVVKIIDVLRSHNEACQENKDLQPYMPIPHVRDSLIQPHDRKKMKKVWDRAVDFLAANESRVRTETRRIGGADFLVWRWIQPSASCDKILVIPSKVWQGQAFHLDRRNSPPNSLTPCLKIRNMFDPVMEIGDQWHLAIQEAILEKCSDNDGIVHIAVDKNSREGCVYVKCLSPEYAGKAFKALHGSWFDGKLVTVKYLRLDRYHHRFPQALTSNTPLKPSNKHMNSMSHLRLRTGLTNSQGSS

Assays:
Test in all cases: log2 fold change, soluble protein after heating vs DMSO (PISA); higher = thermal stabilisation; K562 lysate, 10 uM; active = over 0.2 and 3.5 SD of the protein, either way, in both replicates (recomputed)
erlotinib = compound: C#Cc1cccc(Nc2ncnc3cc(OCCOC)c(OCCOC)cc23)c1 [erlotinib]
Outline: (§1)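 Log-two fold change in thermal stability relative to solvent controls is reported from duplicates. For each sample, crude K562 extract from dounce-homogenised pellets in PBS pH 7.4 with 1 mM MgCl2, at 1 mg/mL protein, was treated with 10 μM compound for 30 min. Aliquots heated for 3 min across 48°C-58°C were pooled, brought to 0.5% NP-40 at 4°C and cleared at 21,000xg for 90 min. The supernatant was quantified by TMTpro 16plex LC-MS/MS with channel sums equalised.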

[1] = compound: C/C(=N\NC(=O)C1=CC(=CC=C1)S(=O)(=O)N2CCOCC2)/C3=C(C=CC(=C3)Cl)O
Outline: as §1

[2] = compound: C1=CC(=CC=C1C2=NC3=C(N2)C=C(C=C3)C(=O)N)OC4=CC=C(C=C4)Cl
Outline: as §1

[3] = compound: C1=CC2=C(C=CC(=C2)/C=C\3/C(=O)NC(=NCC4=CC=CS4)S3)N=C1
Outline: as §1

[4] = compound: C1=CC=C2C(=C1)C3=NNC4=CC=CC(=C43)C2=O
Outline: as §1

[5] = compound: CC(=O)c1cnc2ccc(-c3cc(Cl)c(O)c(Cl)c3)nc2c1N[C@H]1CC[C@H](CN(C)C)CC1
Outline: as §1

[6] = compound: CC(C)C1=C2N=C(C=C(N2N=C1)NCC3=CC=CC=C3)NCCCCCCN
Outline: as §1

[7] = compound: CC1=C(C(CC(=O)N1)C2=CC=C(C=C2)C(F)(F)F)C(=O)NC3=C(C=C4C(=C3)C=NN4)F
Outline: as §1

[8] = compound: CC1=CC=C(C=C1)SC2=C3C=C(SC3=CN=C2)C(=O)N
Outline: as §1

[9] = compound: C1=CC2=NC=CN=C2C=C1/C=C/3\C(=O)NC(=O)S3
Outline: as §1

[10] = compound: C1=CC=C(C=C1)C2=NC(=C(N2)C3=CC=NC=C3)C4=CC(=C(C=C4)Cl)O
Outline: as §1

[11] = compound: C1CCN(C1)C(=O)NC2=CC=CC(=C2)NC3=NC=C(C(=N3)NCCC4=CN=CN4)Br
Outline: as §1

[12] = compound: C1CN(CCC1(CC2=CC=C(C=C2)Cl)N)C3=NC=NC4=C3C=CN4
Outline: as §1

IRAK-1-4 Inhibitor I = compound: C1COCCN1CCN2C3=CC=CC=C3N=C2NC(=O)C4=CC(=CC=C4)[N+](=O)[O-] [IRAK-1-4 Inhibitor I]
Outline: as §1

ibrutinib = compound: C=CC(=O)N1CCC[C@@H](n2nc(-c3ccc(Oc4ccccc4)cc3)c3c(N)ncnc32)C1 [ibrutinib]
Outline: as §1

ralimetinib = compound: CC(C)(C)Cn1c(N)nc2ccc(-c3[nH]c(C(C)(C)C)nc3-c3ccc(F)cc3)nc21 [ralimetinib]
Outline: as §1

[13] = compound: CC(C)(O)CC(=O)NCCn1ccc2ncnc(Nc3ccc(Oc4cccc(C(F)(F)F)c4)c(Cl)c3)c21
Outline: as §1

[14] = compound: CC1=C(C2=C(C=C1)C(=O)C3=CC=CC=C3N2CCCN)C
Outline: as §1

[15] = compound: CC1=C(C=C(C=C1)NC(=O)C2=CC(=CC=C2)C(C)(C)C#N)NC3=CC4=C(C=C3)N=CN(C4=O)C
Outline: as §1

[16] = compound: CC1=C(C=C(C=C1)NC(=O)C2=CC(=CC=C2)N(C)C)NC(=O)C3=CC=C(C=C3)O
Outline: as §1

Measured: log2 fold change

LCN2 (UniProt P80188)
inactive: erlotinib -0.048 | [1] 1.2 | [2] -0.262 | [3] -0.001 | [4] -0.501 | [5] -0.354 | [6] 1.16 | [7] 1.72 | [8] -0.026

LIG1 (UniProt P18858)
inactive: erlotinib 0.001 | [1] -0.001 | [2] 0.024 | [3] 0.002 | [9] -0.003 | [10] 0.009 | [4] -0.001 | [11] -0.036 | [12] 0 | IRAK-1-4 Inhibitor I -0.013 | ibrutinib 0.007 | [5] -0.024 | ralimetinib 0.016 | [13] -0.032 | [6] 0 | [7] -0.009 | [14] 0.03 | [15] 0.023 | [16] 0 | [8] -0.023

LMF2 (UniProt Q9BU23)
inactive: erlotinib -0.019 | [1] -0.098 | [2] 0.106 | [3] -0.043 | [9] 0.014 | [4] -0.132 | [11] 0.073 | [12] 0.064 | ibrutinib -0.062 | [6] 0.061 | [7] 0.064 | [14] -0.059 | [15] -0.005

LEMD3 (UniProt Q9Y2U8)
inactive: erlotinib -0.073 | [2] 0.096 | [9] -0.174 | [10] 0.076 | IRAK-1-4 Inhibitor I -0.06 | ibrutinib 0.154 | [5] -0.133 | ralimetinib 0.18 | [13] -0.018 | [6] -0.018 | [7] -0.034 | [15] 0.069 | [16] -0.251 | [8] 0
